Source: PMC10062582

Chains of the proteins cited; added tags and fusions are not shown. Lines headed by an entry give the natural chain unless they say otherwise; changes in a name come on top.
UniProt P32905: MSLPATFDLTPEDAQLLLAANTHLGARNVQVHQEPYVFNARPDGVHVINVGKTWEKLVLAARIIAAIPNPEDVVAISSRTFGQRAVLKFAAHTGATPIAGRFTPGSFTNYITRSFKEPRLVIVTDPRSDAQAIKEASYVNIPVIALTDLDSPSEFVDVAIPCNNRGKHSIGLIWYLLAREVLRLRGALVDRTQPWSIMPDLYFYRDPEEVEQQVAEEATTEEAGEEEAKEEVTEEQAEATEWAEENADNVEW
UniProt P0C0V8: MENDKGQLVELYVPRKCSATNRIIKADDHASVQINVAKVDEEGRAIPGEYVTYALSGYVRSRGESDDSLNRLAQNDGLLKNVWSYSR

T1: Enp1 in fusion with the tandem affinity purification tag (Enp1-TAP) (S. cerevisiae) (UniProt P38333)
T1 sequence: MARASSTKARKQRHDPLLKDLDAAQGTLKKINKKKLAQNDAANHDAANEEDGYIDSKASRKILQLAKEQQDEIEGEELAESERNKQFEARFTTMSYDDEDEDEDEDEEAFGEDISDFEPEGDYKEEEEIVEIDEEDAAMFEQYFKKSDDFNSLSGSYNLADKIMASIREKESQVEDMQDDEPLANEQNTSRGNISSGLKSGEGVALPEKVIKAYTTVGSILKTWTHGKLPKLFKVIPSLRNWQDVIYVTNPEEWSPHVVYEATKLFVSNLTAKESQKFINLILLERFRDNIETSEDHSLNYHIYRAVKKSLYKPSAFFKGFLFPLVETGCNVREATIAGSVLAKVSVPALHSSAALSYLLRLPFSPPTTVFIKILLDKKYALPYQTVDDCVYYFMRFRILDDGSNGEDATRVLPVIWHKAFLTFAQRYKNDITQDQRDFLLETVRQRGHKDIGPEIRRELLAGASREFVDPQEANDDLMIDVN

B1: yeast endonuclease Nob1 (enzyme, UniProt Q08444 1-459)
chain: MTENQTAHVRALILDATPLITQSYTHYQNYAQSFYTTPTVFQEIKDAQARKNLEIWQSLGTLKLVHPSENSIAKVSTFAKLTGDYSVLSANDLHILALTYELEIKLNNGDWRLRKKPGDALDASKADVGTDGKQKLTEDNKKEEDSESVPKKKNKRRGGKKQKAKREAREAREAENANLELESKAEEHVEEAGSKEQICNDENIKESSDLNEVFEDADDDGDWITPENLTEAIIKDSGEDTTGSLGVEASEEDRHVALNRPENQVALATGDFAVQNVALQMNLNLMNFMSGLKIKRIRNYMLRCHACFKIFPLPKDGKPKHFCASCGGQGTLLRCAVSVDSRTGNVTPHLKSNFQWNNRGNRYSVASPLSKNSQKRYGKKGHVHSKPQENVILREDQKEYEKVIKQEEWTRRHNEKILNNWIGGGSADNYISPFAITGLKQHNVRIGKGRYVNSSKRRS

How the values were obtained:
[1] = biological target: T1, Enp1 in fusion with the tandem affinity purification tag (Enp1-TAP) (S. cerevisiae); test: cryo-EM structure; SSU precursor particles (with 20S pre-rRNA) one-step affinity purified via Enp1-TAP from extract of control strain Y2226 after four hours in glucose medium; state Enp1TAP_A; bait rows: proteins found together in one particle, direct contact not told
[2] = biological target: rpS0/uS2 (S. cerevisiae (endogenous)) (UniProt P32905); test: as above

Molecule | binding [1] | binding [2]
rpS21/eS21 (from UniProt P0C0V8) | binds | –
B1 | – | binds

These are yes or no findings as the source states them, for the method shown. A result given as binding can be weak or reduced; the word gives no strength. For some assays here: Sequences can lack the tags named with a protein.
